Laboratory results reported in article doi:10.1101/2021.12.02.470886.
Results are given in words; binding and its absence hold for the method and conditions named. In cells and extracts the contact can be indirect. Sequences can lack the tags named with a protein.

Biological target: NbRZ-1A-GFP (Nicotiana benthamiana)
Assay: co-IP

B1: NAC089-HA (protein, UniProt Q94F58 1-340)
chain: MDTKAVGVSKDTAASMEASTVFPGFKFSPTDVELISYYLKRKMDGLERSVEVIPDLEIYNFEPWDLPDKSIVKSDSEWFFFCARGKKYPHGSQNRRATKMGYWKATGKERDVKSGSEVIGTKRTLVFHIGRAPKGERTDWIMHEYCVKGVSLDDAMVVCRVRRNKEYNSGTSQKAPKPNSSAEKHAKVQNGATSSGSPSDWDNLVDFYLAGESGEKLLAEMAESSENLQVDNDEDFFADILRDEIINLDEAVMTGNTPNEVPTLESASMEIRVLPLPNMIDKQMSSLLEERPSQKKKGKDATESLSSCFVGLYSIKSVNKARWDVIIGVVALIAMLFYLE
binding: no binding
